Measurements as given in publication PMC11670450.
Results are given in words; binding and its absence hold for the method and conditions named. Binding seen in cells or lysates may run through a third protein. Here binding means that the protein was enriched with, or labelled near, the bait; the list need not be complete. One block for each binder: values may come before it.

Amino acid sequences for entries named in this document (tags omitted). Residues count along the entry.
UniProt P05106, residues 27-788: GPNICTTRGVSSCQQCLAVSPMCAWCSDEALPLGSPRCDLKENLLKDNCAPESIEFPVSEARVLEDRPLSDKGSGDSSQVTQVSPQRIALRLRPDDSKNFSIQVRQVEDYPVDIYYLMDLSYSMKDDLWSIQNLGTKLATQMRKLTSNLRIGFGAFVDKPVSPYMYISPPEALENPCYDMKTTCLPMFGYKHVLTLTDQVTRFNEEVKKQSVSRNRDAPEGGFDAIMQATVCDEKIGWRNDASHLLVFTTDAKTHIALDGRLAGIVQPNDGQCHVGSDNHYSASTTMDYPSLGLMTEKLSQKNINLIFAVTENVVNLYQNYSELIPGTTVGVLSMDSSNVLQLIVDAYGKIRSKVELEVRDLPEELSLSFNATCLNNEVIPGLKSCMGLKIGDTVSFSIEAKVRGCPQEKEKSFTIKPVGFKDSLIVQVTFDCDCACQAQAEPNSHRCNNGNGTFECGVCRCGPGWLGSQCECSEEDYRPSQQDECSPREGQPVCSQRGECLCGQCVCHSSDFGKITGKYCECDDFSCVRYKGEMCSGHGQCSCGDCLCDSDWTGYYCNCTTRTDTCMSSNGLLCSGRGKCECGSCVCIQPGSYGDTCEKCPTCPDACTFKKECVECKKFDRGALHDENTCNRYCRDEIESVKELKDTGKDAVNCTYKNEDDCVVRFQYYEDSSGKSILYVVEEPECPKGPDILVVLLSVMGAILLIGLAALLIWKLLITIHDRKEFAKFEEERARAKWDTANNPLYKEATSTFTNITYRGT

Target: Integrin beta-3 (human (endogenous in HTR-8/SVneo)) (UniProt P05106)
Assay: affinity purification with mass spectrometry; HTR-8/SVneo cell lysate incubated with anti-ITGB3 antibody or nonimmune IgG at 4 °C overnight, protein A/G beads, washes in TBS with 0.05% Tween-20, glycine pH 2.7 elution; SDS-PAGE, silver stain, in-gel digest of the enriched band, LC-MS/MS; proteins specific to the ITGB3 group, abundance threshold > 20

- binding: binds
B2: Arginase-1 (protein, UniProt P05089 1-322)
chain: MSAKSRTIGIIGAPFSKGQPRGGVEEGPTVLRKAGLLEKLKEQECDVKDYGDLPFADIPNDSPFQIVKNPRSVGKASEQLAGKVAEVKKNGRISLVLGGDHSLAIGSISGHARVHPDLGVIWVDAHTDINTPLTTTSGNLHGQPVSFLLKELKGKIPDVPGFSWVTPCISAKDIVYIGLRDVDPGEHYILKTLGIKYFSMTEVDRLGIGKVMEETLSYLLGRKKRPIHLSFDVDGLDPSFTPATGTPVVGGLTYREGLYITEEIYKTGLLSGLDIMEVNPSLGKTPEEVTRTVNTAVAITLACFGLAREGNHKPIDYLNPPK

- binding: binds
B3: Junctional protein associated with coronary artery disease (protein, UniProt Q9P266 1-1359)
chain: MYSVEDLLISHGYKLSRDPPASREDNPKGRQAARTGTRAGQGLQNGHEDGPAALAHRKTSAGKGHVSDSESRRSTPRGHGEPQSTSASRTSEAGFCNQPPSAWSSHPPTGNDQAYRRRGRQEARSQKPREHENLEARGMAQAHSLPVHVREGPWEVGGRSEHVMKKPVWEEELRMSGPAKWQNVSLESWNQPRKLGRQMSDGDGERLFQDLYPFIQGEHVLNSQNKGKSRSLPRVLSPESLSCTEIPIPLNERHSPKMPPYPPTCAPNLDSTRNSEKSGCSAPFPRPKFGRPLKPPSYSSHQQSRGGADSSDSQDSQQMDAYVPRHELCLSDPGLEPPVYVPPPSYRSPPQNIPNPYLEDTVPINVCGGHSQQQSPTEKAGASGQPPSGPPGTGNEYGVSPRLPQGLPAHPRPVTAYDGFVQYIPFDDPRLRHFKLAQPQGFCEDIKLDDKSYNSSPVTAQEPAHGGMQPDGAIWNPQSLIPPSGDERGLVLADSSPRWLWGQPPGDGENSGLPNQRDRCVARGQWPDVRGSQHGHTGRQVSSPYSQGESTCETQTKLKKFQTGTRTKKSSKKKMNETIFCLVSIPVKSESHLPDRDMDNNDLKPSADQKNGSDKSPALQEQSLLSMSSTDLELQALTGSMGGRTEFQKQDLGEPEEDRQTNDLSFIHLTKHRELKHSGSWPGHRYRDQQTQTSFSEEPQSSQLLPGAKLGGPSRAALSPKCSDPAASEAQTHTAFPTGDHKQRPSARNLKGHRSLSPSSNSAFSRTSLSVDQAPTPKAGRSQPCVDVHGLGAHPGPKREVVKGEPTGPCNSKQLFGQFLLKPVSRRPWDLISQLESFNKELQEEEESSSSSSSSSSSSEESEAEPQQENRAHCRQEDVGFRGNSPEMRVEPQPRMWVPESPVCRSGRGESKSESWSEELQPGHPRAWPPSPGRFRVEEGGGAPFCSADGSTSAEKRHLEVSNGMDELAGSPFPVTRMSSRSSDAKPLPASYPAEPREPQESPKITSAFSSVKPSEAVPRKFDSGGERGAGLPLSLSNKNRGLSAPDLRSVGLTPGQEQGASELEGSLGEASTIEIPPGESLQARAARILGIEVAVESLLPGIRRAGQNQPAEPDASACTPESPQEELLSRPAPADVPRVSTDAFYGRRKCGWTKSPLFVGDRDSARRAPQAFEHSDVDGVVTSTDPVPEPEPSPLESKFFEQKDVETKPPFRSTLFHFVERTPSVAGSEKRLRSPSKVIESLQEKLASPPRRADPDRLMRMKEVSSVSRMRVLSFRNADSQEDAEELKATTRGQAGLPGGLVSPGSGDRAQRLGHSLSVSKDSISREEKEHPAAQKEKSMDQDFWCPDSYDPSRVERV

- binding: binds
B5: Uncharacterized protein encoded by LINC02872 (protein, UniProt A2RU37 1-121)
chain: MWSRRGLGVSRAPLHLLLGVWGPSGRTGGQRKGASLARPGRGGLASCSVGANGKRDVLFLRKTLTNTVEDIQIDNFRRKSDLGVGSPDWKNLLIDVTREDHENSQNNSKRRCKVNCETDQR

- binding: binds
B9: Catalase (protein, UniProt P04040 1-527)
chain: MADSRDPASDQMQHWKEQRAAQKADVLTTGAGNPVGDKLNVITVGPRGPLLVQDVVFTDEMAHFDRERIPERVVHAKGAGAFGYFEVTHDITKYSKAKVFEHIGKKTPIAVRFSTVAGESGSADTVRDPRGFAVKFYTEDGNWDLVGNNTPIFFIRDPILFPSFIHSQKRNPQTHLKDPDMVWDFWSLRPESLHQVSFLFSDRGIPDGHRHMNGYGSHTFKLVNANGEAVYCKFHYKTDQGIKNLSVEDAARLSQEDPDYGIRDLFNAIATGKYPSWTFYIQVMTFNQAETFPFNPFDLTKVWPHKDYPLIPVGKLVLNRNPVNYFAEVEQIAFDPSNMPPGIEASPDKMLQGRLFAYPDTHRHRLGPNYLHIPVNCPYRARVANYQRDGPMCMQDNQGGAPNYYPNSFGAPEQQPSALEHSIQYSGEVRRFNTANDDNVTQVRAFYVNVLNEEQRKRLCENIAGHLKDAQIFIQKKAVKNFTEVHPDYGSHIQALLDKYNAEKPKNAIHTFVQSGSHLAAREKANL

Further lines, the binder ahead of its results:

B1: Corneodesmosin (protein, UniProt Q15517 33-529)
chain: KSIGTFSDPCKDPTRITSPNDPCLTGKGDSSGFSSYSGSSSSGSSISSARSSGGGSSGSSSGSSIAQGGSAGSFKPGTGYSQVSYSSGSGSSLQGASGSSQLGSSSSHSGNSGSHSGSSSSHSSSSSSFQFSSSSFQVGNGSALPTNDNSYRGILNPSQPGQSSSSSQTFGVSSSGQSVSSNQRPCSSDIPDSPCSGGPIVSHSGPYIPSSHSVSGGQRPVVVVVDQHGSGAPGVVQGPPCSNGGLPGKPCPPITSVDKSYGGYEVVGGSSDSYLVPGMTYSKGKIYPVGYFTKENPVKGSPGVPSFAAGPPISEGKYFSSNPIIPSQSAASSAIAFQPVGTGGVQLCGGGSTGSKGPCSPSSSRVPSSSSISSSSGLPYHPCGSASQSPCSPPGTGSFSSSSSSQSSGKIILQPCGSKSSSSGHPCMSVSSLTLTGGPDGSPHPDPSAGAKPCGSSSAGKIPCRSIRDILAQVKPLGPQLADPEVFLPQGELLNSP
- binding: binds

B4: Protein FAM171B (protein, UniProt Q6P995 33-826)
chain: ELSRSDLSLIQQQQQQQQQQQQQQKQLEEAEEERTEVPGATSTLTVPVSVFMLKVQVNDIISRQYLSQAVVEVFVNYTKTNSTVTKSNGAVLIKVPYKLGLSLTIIAYKDGYVLTPLPWKTRRMPIYSSVTLSLFPQSQANIWLFEDTVLITGKLADAKSQPSVQFSKALIKLPDNHHISNVTGYLTVLQQFLKVDNFLHTTGITLNKPGFENIELTPLAAICVKIYSGGKELKVNGSIQVSLPLLRLNDISAGDRIPAWTFDMNTGAWVNHGRGMVKEHNNHLIWTYDAPHLGYWIAAPLPGTRGSGINEDSKDITAYHTVFLTAILGGTIVIVIGFFAVLLCYCRDKCGTPQKRERNITKLEVLKRDQTTSTTHINHISTVKVALKAEDKSQLFNAKNSSYSPQKKEPSKAETEERVSMVKTRDDFKIYNEDVSFLSVNQNNYSRNPTQSLEPNVGSKQPKHINNNLSSSLGDAQDEKRYLTGNEEAYGRSHIPEQLMHIYSQPIAILQTSDLFSTPEQLHTAKSATLPRKGQLVYGQLMEPVNRENFTQTLPKMPIHSHAQPPDAREEDIILEGQQSLPSQASDWSRYSSSLLESVSVPGTLNEAVVMTPFSSELQGISEQTLLELSKGKPSPHPRAWFVSLDGKPVAQVRHSFIDLKKGKRTQSNDTSLDSGVDMNELHSSRKLEREKTFIKSMHQPKILYLEDLDLSSSESGTTVCSPEDPALRHILDGGSGVIMEHPGEESPGRKSTVEDFEANTSPTKRRGRPPLAKRDSKTNIWKKREERPLIPIN
- binding: binds

B6: Keratin, type II cytoskeletal 1b (protein, UniProt Q7Z794 1-578)
chain: MSHQFSSQSAFSSMSRRVYSTSSSAGSGGGSPAVGSVCYARGRCGGGGYGIHGRGFGSRSLYNLGGSRSISINLMGRSTSGFCQGGGVGGFGGGRGFGVGSTGAGGFGGGGFGGAGFGTSNFGLGGFGPYCPPGGIQEVTINQSLLEPLHLEVDPEIQRIKTQEREQIMVLNNKFASFIDKVRFLEQQNQVLQTKWELLQQVNTSTGTNNLEPLLENYIGDLRRQVDLLSAEQMRQNAEVRSMQDVVEDYKSKYEDEINKRTGSENDFVVLKKDVDAAYVSKVDLESRVDTLTGEVNFLKYLFLTELSQVQTHISDTNVILSMDNNRSLDLDSIIDAVRTQYELIAQRSKDEAEALYQTKYQELQITAGRHGDDLKNSKMEIAELNRTVQRLQAEISNVKKQIEQMQSLISDAEERGEQALQDAWQKLQDLEEALQQSKEELARLLRDYQAMLGVKLSLDVEIATYRQLLEGEESRMSGELQSHVSISVQNSQVSVNGGAGGGGSYGSGGYGGGSGGGYGGGRSYRGGGARGRSGGGYGSGCGGGGGSYGGSGRSGRGSSRVQIIQTSTNTSHRRILE
- binding: binds

B7: Exonuclease V (protein, UniProt Q9H790 1-373)
chain: MAETREEETVSAEASGFSDLSDSEFLEFLDLEDAQESKALVNMPGPSSESLGKDDKPISLQNWKRGLDILSPMERFHLKYLYVTDLATQNWCELQTAYGKELPGFLAPEKAAVLDTGASIHLARELELHDLVTVPVTTKEDAWAIKFLNILLLIPTLQSEGHIREFPVFGEGEGVLLVGVIDELHYTAKGELELAELKTRRRPMLPLEAQKKKDCFQVSLYKYIFDAMVQGKVTPASLIHHTKLCLEKPLGPSVLRHAQQGGFSVKSLGDLMELVFLSLTLSDLPVIDILKIEYIHQETATVLGTEIVAFKEKEVRAKVQHYMAYWMGHREPQGVDVEEAWKCRTCTYADICEWRKGSGVLSSTLAPQVKKAK
- binding: binds

B8: Conserved oligomeric Golgi complex subunit 7 (protein, UniProt P83436 1-770)
chain: MDFSKFLADDFDVKEWINAAFRAGSKEAASGKADGHAATLVMKLQLFIQEVNHAVEETSHQALQNMPKVLRDVEALKQEASFLKEQMILVKEDIKKFEQDTSQSMQVLVEIDQVKSRMQLAAESLQEADKWSTLSADIEETFKTQDIAVISAKLTGMQNSLMMLVDTPDYSEKCVHLEALKNRLEALASPQIVAAFTSQAVDQSKVFVKVFTEIDRMPQLLAYYYKCHKVQLLAAWQELCQSDLSLDRQLTGLYDALLGAWHTQIQWATQVFQKPHEVVMVLLIQTLGALMPSLPSCLSNGVERAGPEQELTRLLEFYDATAHFAKGLEMALLPHLHEHNLVKVTELVDAVYDPYKPYQLKYGDMEESNLLIQMSAVPLEHGEVIDCVQELSHSVNKLFGLASAAVDRCVRFTNGLGTCGLLSALKSLFAKYVSDFTSTLQSIRKKCKLDHIPPNSLFQEDWTAFQNSIRIIATCGELLRHCGDFEQQLANRILSTAGKYLSDSCSPRSLAGFQESILTDKKNSAKNPWQEYNYLQKDNPAEYASLMEILYTLKEKGSSNHNLLAAPRAALTRLNQQAHQLAFDSVFLRIKQQLLLISKMDSWNTAGIGETLTDELPAFSLTPLEYISNIGQYIMSLPLNLEPFVTQEDSALELALHAGKLPFPPEQGDELPELDNMADNWLGSIARATMQTYCDAILQIPELSPHSAKQLATDIDYLINVMDALGLQPSRTLQHIVTLLKTRPEDYRQVSKGLPRRLATTVATMRSVNY
- binding: binds

B10: Peroxiredoxin-1 (protein, UniProt Q06830 1-199)
chain: MSSGNAKIGHPAPNFKATAVMPDGQFKDISLSDYKGKYVVFFFYPLDFTFVCPTEIIAFSDRAEEFKKLNCQVIGASVDSHFCHLAWVNTPKKQGGLGPMNIPLVSDPKRTIAQDYGVLKADEGISFRGLFIIDDKGILRQITVNDLPVGRSVDETLRLVQAFQFTDKHGEVCPAGWKPGSDTIKPDVQKSKEYFSKQK
- binding: binds
